Measured values taken from paper PMC4858978.
These are yes or no findings as the source states them, for the method shown. In cells and extracts the contact can be indirect. Some results given as binding are weak or reduced against the parent protein; the word gives no strength. Each block holds one substance with its values, some of them ahead of it.

Chains of the proteins cited; added tags and fusions are not shown. Lines headed by an entry give the natural chain unless they say otherwise; changes in a name come on top. A line that says so, or that is headed by a name, gives the form on record, which may keep a tag or linker.
UniProt P14618: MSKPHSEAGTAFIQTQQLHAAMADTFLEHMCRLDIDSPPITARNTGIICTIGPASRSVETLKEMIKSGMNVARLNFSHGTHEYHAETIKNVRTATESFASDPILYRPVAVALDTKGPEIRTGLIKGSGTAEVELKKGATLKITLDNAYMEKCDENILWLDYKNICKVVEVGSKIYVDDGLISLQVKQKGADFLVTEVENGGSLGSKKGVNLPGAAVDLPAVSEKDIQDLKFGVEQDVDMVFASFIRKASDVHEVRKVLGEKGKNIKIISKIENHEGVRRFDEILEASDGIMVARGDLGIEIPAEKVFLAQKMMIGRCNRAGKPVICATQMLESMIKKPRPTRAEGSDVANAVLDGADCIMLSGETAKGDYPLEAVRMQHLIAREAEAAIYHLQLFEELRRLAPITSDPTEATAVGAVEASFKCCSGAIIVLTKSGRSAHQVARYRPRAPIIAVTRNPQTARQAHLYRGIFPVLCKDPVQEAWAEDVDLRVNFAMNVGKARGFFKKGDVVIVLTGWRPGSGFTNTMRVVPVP
FLAG-tagged PKM1 (P14618, form named): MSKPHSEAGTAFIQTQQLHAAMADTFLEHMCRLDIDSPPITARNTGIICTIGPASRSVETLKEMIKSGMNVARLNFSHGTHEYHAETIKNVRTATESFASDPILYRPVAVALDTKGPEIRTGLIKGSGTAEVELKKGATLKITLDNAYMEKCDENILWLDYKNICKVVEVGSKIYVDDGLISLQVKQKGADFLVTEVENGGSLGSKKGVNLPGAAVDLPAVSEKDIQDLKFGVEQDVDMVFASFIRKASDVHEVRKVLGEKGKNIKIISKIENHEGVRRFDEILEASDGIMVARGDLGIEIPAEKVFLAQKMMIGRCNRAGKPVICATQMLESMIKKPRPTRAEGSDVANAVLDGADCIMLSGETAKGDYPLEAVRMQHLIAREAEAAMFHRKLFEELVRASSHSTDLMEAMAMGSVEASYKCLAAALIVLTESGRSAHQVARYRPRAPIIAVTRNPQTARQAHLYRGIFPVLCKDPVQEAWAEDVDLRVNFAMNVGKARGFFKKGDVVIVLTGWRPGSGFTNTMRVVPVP
UniProt O60260: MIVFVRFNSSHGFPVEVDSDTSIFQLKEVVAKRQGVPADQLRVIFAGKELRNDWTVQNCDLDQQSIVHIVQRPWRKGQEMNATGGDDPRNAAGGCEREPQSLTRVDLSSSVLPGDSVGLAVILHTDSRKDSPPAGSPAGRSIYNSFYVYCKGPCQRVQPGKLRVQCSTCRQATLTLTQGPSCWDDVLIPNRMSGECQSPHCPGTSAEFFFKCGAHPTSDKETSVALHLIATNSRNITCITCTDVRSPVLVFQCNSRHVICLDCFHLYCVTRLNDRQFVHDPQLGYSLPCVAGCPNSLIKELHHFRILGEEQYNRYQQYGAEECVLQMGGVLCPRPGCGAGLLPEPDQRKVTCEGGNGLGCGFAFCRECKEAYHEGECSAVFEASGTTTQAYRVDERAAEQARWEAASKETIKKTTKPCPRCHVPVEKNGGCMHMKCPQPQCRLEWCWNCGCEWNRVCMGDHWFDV

Columns and labels:
[1] = target: pyruvate kinase M2, endogenous (human (endogenous in H1299, U87, IMR32)) (UniProt P14618); assay: co-IP; endogenous proteins; cytoplasmic extracts of U87 or IMR32 cells; PKM2-specific or parkin-specific antibody or control IgG at 4 °C overnight, Protein A/G beads, BC100 washes; Western blot
[2] = target: GST-tagged full-length parkin (human) (UniProt O60260); assay: pull-down; purified GST or GST-tagged protein incubated with in vitro translated 35S-labeled protein at 4 °C overnight in BC100 buffer + 0.2% BSA, GST resin, eluted with 20 mM reduced glutathione; autoradiography; only the target purified
[3] = target: FLAG-HA-parkin (FLAG- and HA-double tagged human parkin) (human) (UniProt O60260); assay: co-IP; FLAG-HA-parkin/H1299 stable line, glucose starvation for 0, 1 and 2 h; cytoplasmic extracts, FLAG M2-agarose beads; Western blot
[4] = target: FLAG-tagged parkin (human) (UniProt O60260); assay: co-IP; cytoplasmic extracts of transiently transfected cells; FLAG M2-agarose or HA-agarose beads at 4 °C overnight, washed with BC100 buffer, eluted with FLAG or HA peptide; Western blot
[5] = target: parkin, endogenous (human (endogenous in H1299, U87, IMR32)) (UniProt O60260); assay: co-IP; endogenous proteins; cytoplasmic extracts of U87 or IMR32 cells; PKM2-specific or parkin-specific antibody or control IgG at 4 °C overnight, Protein A/G beads, BC100 washes; Western blot
FLAG-tagged PKM2 (human) = FLAG-tagged PKM2 (human) (UniProt P14618); assay: co-IP; cytoplasmic extracts of transiently transfected cells; FLAG M2-agarose or HA-agarose beads at 4 °C overnight, washed with BC100 buffer, eluted with FLAG or HA peptide; Western blot
[6] = target: full-length GST-PKM2 fusion protein (human) (UniProt P14618); assay: pull-down; purified GST or GST-tagged protein incubated with in vitro translated 35S-labeled protein at 4 °C overnight in BC100 buffer + 0.2% BSA, GST resin, eluted with 20 mM reduced glutathione; autoradiography; only the target purified
FLAG-tagged PKM1 = FLAG-tagged PKM1 (UniProt P14618); assay: co-IP; cytoplasmic extracts of transiently transfected cells; FLAG M2-agarose or HA-agarose beads at 4 °C overnight, washed with BC100 buffer, eluted with FLAG or HA peptide; Western blot

- binding [1]: binds
Substance: parkin, endogenous (from UniProt O60260 1-465) (enzyme)

- binding [2]: binds
Substance: in vitro translated [35S]methionine-labeled PKM2 (from UniProt P14618 1-531) (enzyme)

- binding [3]: binds
- binding [4]: binds
- binding [5]: binds
Substance: pyruvate kinase M2, endogenous (from UniProt P14618 1-531) (enzyme)

- binding (FLAG-tagged PKM2 (human)): binds
Substance: myc-tagged parkin (from UniProt O60260 1-465) (enzyme)

- binding [6]: binds
Substance: in vitro translated [35S]methionine-labeled full-length parkin (from UniProt O60260 1-465) (enzyme)

- binding (FLAG-tagged PKM1): binds
Substance: HA-tagged parkin (from UniProt O60260 1-465) (enzyme)

- binding [6]: binds
Substance: in vitro translated [35S]methionine-labeled parkin 100-465 fragment (from UniProt O60260 100-465) (domain or fragment)
